Data set [1] deals with FOXA2 forkhead domain (UniProt Q9Y261). Briefly: EMSA. The note with it: 200 uM compound T, PRE or POST. A general note: In EMSA bound probe runs differently from free probe, usually more slowly.
Data set [2] concerns the target FOXA1 forkhead domain (UniProt P55317). Briefly: EMSA.
Data set [3] concerns the target FOXA2 forkhead domain, Twin-Strep-tagged (UniProt Q9Y261). Briefly: EMSA. The following applies: 400 nM protein.
In data set [4] the test system is FOXA1 forkhead domain + FOXA2 forkhead domain, Twin-Strep-tagged. Briefly: EMSA. The following applies: 200 uM compound T.
Data set [5] has as its target FOXA2 forkhead domain (UniProt Q9Y261). Briefly: BLI. The following applies: 100 uM compound T, text: disabled from binding.
Data set [6] has as its target FOXA1 forkhead domain (UniProt P55317). Kind of data set: BLI. The following applies: 100 uM compound T, text: disabled from binding.

Chains of the proteins cited; added tags and fusions are not shown. Residues count along the entry.
UniProt Q9Y261, 159-252: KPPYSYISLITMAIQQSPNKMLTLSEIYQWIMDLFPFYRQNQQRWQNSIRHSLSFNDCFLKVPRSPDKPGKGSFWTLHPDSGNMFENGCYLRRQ
UniProt P55317, 169-260: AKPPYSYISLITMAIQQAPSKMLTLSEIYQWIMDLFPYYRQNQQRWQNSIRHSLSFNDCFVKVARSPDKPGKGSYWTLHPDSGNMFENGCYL

Consider 4 sequences from publication doi:10.1101/2025.08.21.671500.

The exact form of at least one protein or probe is not confirmed. For some assays here: No signal at the amounts used counts as a negative. For some assays here: A weaker result is weaker than the reference pair of the same experiment. For some assays here: At least one verdict rests on a figure or table, not on a statement of the authors.

“CCGCCGCCGTGTTTACTTTGCCGCCGCC (double strand) [C (canonical FOXA motif)]”: the binding result with FOXA2 forkhead domain [1] is listed as “binds more weakly”; in the data set with FOXA1 forkhead domain [2], “binds”; in the data set with FOXA1 forkhead domain [2] (200 uM compound T, PRE or POST), “binds more weakly”; in data set [3], “binds”.
With “CCGCCGTAAGTAAATATTTACTTAGCCGCC (double strand) [PAL (extended palindromic motif)]”, the binding result with FOXA2 forkhead domain [1] is given as “binds more weakly”; with FOXA1 forkhead domain [2] (200 uM compound T, PRE or POST) it was “binds more weakly”; in data set [3] (homodimer) it was “binds”; in data set [4], “binds more weakly”.
For “CCGCCGTATTTACTGAGTAAATAGCCGCC (double strand) [2C (two canonical motifs separated by 3 nt)]”, the binding result in the data set with FOXA2 forkhead domain [1] was “binds more weakly”; in the data set with FOXA1 forkhead domain [2] (200 uM compound T, PRE or POST), “binds more weakly”; in data set [3] (homodimer) it was “binds”; in data set [4], “binds more weakly”.
Take “GTGTCTCCTGCTCTGTCAGCAGGGCACTGTACTTGCTGAT (double strand) [BLI 40-mer]”: the binding result in the data set with FOXA2 forkhead domain [5] and in the data set with FOXA1 forkhead domain [6] was “no binding” in each case.
